Source: PubChem BioAssay AID493014 (National Center for Advancing Translational Sciences (NCATS), 2011)
This is one part of the list. These are further read-outs of the screen, such as a control signal, another cell line or another target. No call is given for them. The list favours compounds with an active or inconclusive main result. Words in brackets tell the shape of the fitted curve; partial curves, single points and poor fits give uncertain potencies.

Assay: qHTS Assay to Find Inhibitors of Chronic Active B-Cell Receptor Signaling
Settings: ABC-DLBCL IkBa-CBG/CBR reporter, luminescence ratio (green luciferase fused to IkBa over red control in TMD8 lymphoma cells), 4 h
Outline: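 Cell line TMD8 (human ABC DLBCL), stably expressing tet-inducible CBG68-IkBa fusion and CBR; IMDM/0.5% FBS; cpd up to 46 uM; dox induction, 4 h, 37C/5% CO2; dual luminescence; green/red ratio; MG132 control.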

[1] = measured here: CBR red luminescence, cell number
[2] = measured here: IkBa-CBG green luminescence

SMILES	AC50 [1]	AC50 [2]
CCC(Sc1nc2n[nH]c(C)c2c(=N)n1-c1cc(Cl)ccc1C)C(=O)N1CCOCC1 (stereo not given)	29.1 µM [rising, single point]	
CCOc1nc(C)ccc1-c1noc(-c2ccccn2)n1	7.08 µM [rising, partial curve]	
CCN(CC)CCCNC(=O)c1cc2c(-c3cccc(OC)c3)nn(C)c2s1	20 µM [falling, partial curve, poor fit]	
O=C(Nc1ccc(-c2ccc3nncn3n2)cc1)C1CCCCC1	12.6 µM [falling, single point]	
CCOc1ccc(N=c2scc(-c3ccccc3)n2CCO)cc1	5.17 µM [rising, full curve]	
CC(=O)c1sc(NC(=O)CCS(=O)(=O)c2ccccc2)nc1C	11.2 µM [falling, partial curve]	
COc1ccc(NC(=O)CSc2nnc(COc3ccccc3)n2Cc2ccco2)cc1OC	12.6 µM [falling, single point]	
COc1ccc(CCNC(=O)c2ccccc2Cl)cc1OC	35.5 µM [falling, single point]	
CCc1ccc(OCC2NCCc3cc(OC)c(OC)cc32)cc1 (stereo not given)	11.2 µM [falling, partial curve]	
O=C(C1CCC1)N(CCc1ccccc1)Cc1nc2ccccc2c(=O)[nH]1	11.2 µM [falling, single point]	
Clc1ccc(SCc2cc(-c3ccc(Cl)cc3)on2)cc1	25.9 µM [rising, single point]	
Cc1cc2cc(CNC(=O)c3ccc4c(c3)OCO4)ccc2[nH]1	20 µM [falling, single point]	
O=C(CCC1CCCC1)Nc1ccc(C(=O)NCc2cccnc2)cc1	1.58 µM [rising, partial curve, poor fit]	
Cc1ccccc1CN1C[C@@H]2C[C@@H](c3cn[nH]c3-c3ccc(F)cc3)N3CCC[C@@]23C1=O	11.2 µM [falling, single point]	
Nc1nc(Cl)cc(-c2ccccc2)n1	0.891 µM [falling, full curve, poor fit]	
COc1ccc2c(c1)CCc1cnc(N)nc1-2	31.6 µM [falling, single point]	
Cn1c(=O)n(C)c2cc(NC(=O)COc3ccc(Cl)cc3)ccc21	2 µM [rising, full curve]	
COC(=O)N/N=C/c1cn(Cc2ccccc2F)c2ccccc12	20 µM [falling, single point]	
COc1ccc(N=Nc2c(C)n[nH]c2C)cc1	1.58 µM [rising, partial curve, poor fit]	7.08 µM [falling, partial curve, poor fit]
Cc1ccc(CS(=O)(=O)c2ncc(Cl)c(C(=O)Nc3ccc(OC(F)F)cc3)n2)cc1	6.31 µM [falling, partial curve]	11.2 µM [rising, partial curve]
CC(C)C(NC(=O)c1ccccc1F)C(=O)OCC(=O)c1ccc(F)cc1 (stereo not given)	6.31 µM [rising, partial curve, poor fit]	

SMILES	AC50 [1]	AC50 [2]
CC1CCCN(C2(O)C(=O)Nc3ccc(Cl)cc32)C1 (stereo not given)	11.2 µM [falling, partial curve, poor fit]	
COc1cc(NC(=O)CSc2nc(=O)n(CCCN3CCOCC3)c3c2CCC3)cc(OC)c1	7.31 µM [falling, partial curve, poor fit]	
CN(C)CCOCCOc1ccc(Cl)c2ccccc12	14.1 µM [falling, single point]	
c1csc(C2C3=C(Nc4ncnn42)c2ccccc2OC3)c1 (stereo not given)	8.91 µM [falling, partial curve, poor fit]	
COc1ccc(C(C)=O)cc1CSc1nnc(Nc2c(C)cccc2C)s1	18.4 µM [falling, single point]	
COc1ccc([N+](=O)[O-])cc1NC(=O)c1csc(C)c1		2.24 µM [rising, partial curve, poor fit]
CC(C)OC(=O)c1c(NC(=O)CCn2nnc3ccccc32)sc2c1CCCC2	3.26 µM [falling, full curve, poor fit]	
CC1=NN(C(=O)c2nn(C)cc2Br)C(O)(C(F)(F)F)C1 (stereo not given)	14.6 µM [falling, partial curve]	
N=C1CCC(=N)c2c1c(O)c1ccccc1c2O	3.55 µM [falling, partial curve, poor fit]	
Cn1c(=NC(=O)CS(=O)(=O)c2ccccc2)sc2ccccc21	29.1 µM [falling, single point]	
CCc1ccc(-c2nc(SCC(=O)N(CC)C3CCS(=O)(=O)C3)n[nH]2)cc1 (stereo not given)	0.00517 µM [rising, full curve, poor fit]	
N#CCCn1cc(/C=N/NC(N)=S)c(-c2ccc(Br)cc2)n1	35.5 µM [falling, single point]	7.94 µM [falling, partial curve]
CC(Sc1cccc[n+]1[O-])C(=O)Nc1cccc(S(=O)(=O)N2CCOCC2)c1 (stereo not given)	29.1 µM [falling, single point]	25.9 µM [falling, single point]
O=C(CSc1nnnn1-c1ccccc1)Nc1nc(-c2ccccc2)ns1	5.8 µM [rising, full curve]	
NN/C(=C\[N+](=O)[O-])Nc1ccc(Cl)cc1	7.08 µM [rising, partial curve]	
Cc1cccc(NC(=O)CCC(=O)N2CCOCC2)n1	5.17 µM [rising, single point]	
COc1ccccc1C(=O)Nc1ccc2c(c1)CCCN2C(=O)c1ccccc1	3.55 µM [rising, partial curve, poor fit]	
Cc1nonc1C(=O)N/N=C/c1ccc([N+](=O)[O-])o1	35.5 µM [falling, single point]	
N/C(=N\OC(=O)CCc1ccccc1)c1ccccc1Cl	3.16 µM [rising, partial curve, poor fit]	
CN1c2ccc([N+](=O)[O-])cc2C(C)(C)C12C=Cc1cc(C(=O)O)ccc1O2 (stereo not given)	20 µM [falling, single point]	

Reprinted at random: two compounds from above
SMILES	AC50 [1]	AC50 [2]
N=C1CCC(=N)c2c1c(O)c1ccccc1c2O	3.55 µM [falling, partial curve, poor fit]	
COc1ccc(C(C)=O)cc1CSc1nnc(Nc2c(C)cccc2C)s1	18.4 µM [falling, single point]	
